From PMC4397538 (2015)
These are yes or no findings as the source states them, for the method shown. Binding can be weak; no strength is given.

Biological target: T1, Biotin-BH4-Bcl-XL
T1 sequence (peptide, biotin on the N-terminus (also used without the biotin tag)): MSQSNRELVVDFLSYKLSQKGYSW
Test: SPR; Biacore T200; biotin peptides immobilised on different channels of a streptavidin-coated sensor chip; purified GST-fusion proteins flowed over at the indicated concentrations; binding to the scrambled peptide subtracted; both purified

GST-RyR3 domain (mink RyR3, a.a. 2263-2688) (domain or fragment)
binding: binds
